Measured values reported in the supplement of paper PMC4604168 (melanoma cell lines).
This is one part of the list. Single values are uncertain, as repeats are few or missing.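 Cells were imaged in 1,536-well plates, and nuclei stained with an antibody against cleaved PARP were counted against all DNA-stained nuclei to give the apoptosis fraction. Screening doses were chosen to leave most cells alive, and resting and induced cleaved-PARP levels differ strongly between cell lines.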

Columns and labels:
Assay in all cases: cleaved PARP positive nuclei fraction relative to DMSO control; melanoma cells; higher = more apoptosis
Conditions in all cases: library dose: low library concentration; 72 h
MZ2-MEL = system: MZ2-MEL
MeWo = system: MeWo
RPMI7951 = system: RPMI7951
RVH-421 = system: RVH-421
SkMel28 = system: SkMel28
SkMel2 = system: SkMel2
SkMel30 = system: SkMel30
SkMel5 = system: SkMel5
UACC257 = system: UACC257
UACC62 = system: UACC62

Row | SMILES | cleaved PARP positive nuclei fraction (MZ2-MEL) [%] | cleaved PARP positive nuclei fraction (MeWo) [%] | cleaved PARP positive nuclei fraction (RPMI7951) [%] | cleaved PARP positive nuclei fraction (RVH-421) [%] | cleaved PARP positive nuclei fraction (SkMel28) [%] | cleaved PARP positive nuclei fraction (SkMel2) [%] | cleaved PARP positive nuclei fraction (SkMel30) [%] | cleaved PARP positive nuclei fraction (SkMel5) [%] | cleaved PARP positive nuclei fraction (UACC257) [%] | cleaved PARP positive nuclei fraction (UACC62) [%]
1 | C[C@@H](N)c1ccc(C(=O)Nc2ccnc3[nH]ccc23)cc1 + CN(C)S(=O)(=O)c1ccc2c(c1)/C(=C/c1cc3c([nH]1)CCCC3)C(=O)N2 [SU6656] (first compound 0.4 µM, partner dose 0.4 µM) | 187 | 259 | 147 | 139 | 127 | 71.2 | 89.3 | 156 | 54.1 | 131
2 | CN(c1ncccc1CNc1nc(Nc2ccc3c(c2)CC(=O)N3)ncc1C(F)(F)F)S(C)(=O)=O + Cn1cc(/C=C2\C(=O)Nc3cccnc32)c2ccccc21 [GW441756] (first compound 0.08 µM, partner dose 0.4 µM) | 55.5 | 123 | 121 | 118 | 232 | 37.9 | 101 | 99.3 | 111 | 164
3 | CCCCCCCCc1ccc(CCC(N)(CO)CO)cc1 [fingolimod] + COc1ccc2c(c1)CCC1C2CCC2(C)C(NCCCCCCN3C(=O)C=CC3=O)CCC12 [U73122] (first compound 2 µM, partner dose 0.4 µM) | 148 | 59.3 | 97.7 | 141 | 118 | 87.3 | 340 | 43.4 | 75.9 | 144
4 | CCCCCCCCc1ccc(CCC(N)(CO)CO)cc1 [fingolimod] + C[C@@H]1CCN(C(=O)CC#N)C[C@@H]1N(C)c1ncnc2[nH]ccc12 [CP690550] (first compound 2 µM, partner dose 1 µM) | 83.2 | 70.2 | 123 | 56.5 | 224 | 116 | 68.9 | 140 | 103 | 107
5 | CC(=O)O[C@@]12CO[C@@H]1C[C@H](O)[C@@]1(C)C(=O)[C@H](O)C3=C(C)[C@@H](OC(=O)[C@H](O)[C@@H](NC(=O)OC(C)(C)C)c4ccccc4)C[C@@](O)([C@@H](OC(=O)c4ccccc4)[C@H]21)C3(C)C [Docetaxel] + Cc1ccc(NC(=O)c2cccc(N(C)C)c2)cc1NC(=O)c1ccc(O)cc1 [ZM336372] (first compound 0.0001 µM, partner dose 2 µM) | 493 | 256 | 156 | 57.8 | 114 | 510 | 229 | 268 | 140 | 201
6 | CCN(CC)CCNC(=O)c1c(C)[nH]c(/C=C2\C(=O)Nc3ccc(F)cc32)c1C [sunitinib] + COc1ccc(COc2ccc(Cc3cnc(N)nc3N)cc2OC)cc1 [GW2580] (first compound 0.4 µM, partner dose 1 µM) | 68.3 | 93.1 | 131 | 175 | 141 | 131 | 125 | 81.8 | 156 | 126
7 | CCCCCCCCc1ccc(CCC(N)(CO)CO)cc1 [fingolimod] + N#Cc1c(O)c2c(-c3ccc(-c4ccccc4O)cc3)csc2[nH]c1=O [A769662] (first compound 2 µM, partner dose 2 µM) | 263 | 29.5 | 146 | 225 | 59.9 | 171 | 577 | 140 | 118 | 137
8 | CC(=O)O[C@@]12CO[C@@H]1C[C@H](O)[C@@]1(C)C(=O)[C@H](O)C3=C(C)[C@@H](OC(=O)[C@H](O)[C@@H](NC(=O)OC(C)(C)C)c4ccccc4)C[C@@](O)([C@@H](OC(=O)c4ccccc4)[C@H]21)C3(C)C [Docetaxel] + c1cc(-c2cnn3cc(-c4ccc(OCCN5CCCCC5)cc4)cnc23)ccn1 [Dorsomorphin] (first compound 0.0001 µM, partner dose 0.4 µM) | 235 | 558 | 503 | 99.8 | 1480 | 223 | 591 | 107 | 734 | 491
9 | CN(c1ncccc1CNc1nc(Nc2ccc3c(c2)CC(=O)N3)ncc1C(F)(F)F)S(C)(=O)=O + NCC(=O)Nc1ccc(-n2nc(C(F)(F)F)cc2-c2ccc3c(ccc4ccccc43)c2)cc1 [OSU03012] (first compound 0.08 µM, partner dose 1 µM) | 160 | 271 | 95.2 | 176 | 381 | 74.2 | 108 | 456 | 278 | 189
10 | CN(c1ncccc1CNc1nc(Nc2ccc3c(c2)CC(=O)N3)ncc1C(F)(F)F)S(C)(=O)=O + CCc1ccc(CCOc2ccc(CC3SC(=O)NC3=O)cc2)nc1 [pioglitazone] (first compound 0.08 µM, partner dose 2 µM) | 138 | 105 | 41.2 | 84.3 | 163 | 177 | 128 | 106 | 135 | 543
11 | CC(=O)O[C@@]12CO[C@@H]1C[C@H](O)[C@@]1(C)C(=O)[C@H](O)C3=C(C)[C@@H](OC(=O)[C@H](O)[C@@H](NC(=O)OC(C)(C)C)c4ccccc4)C[C@@](O)([C@@H](OC(=O)c4ccccc4)[C@H]21)C3(C)C [Docetaxel] + N#Cc1c(O)c2c(-c3ccc(-c4ccccc4O)cc3)csc2[nH]c1=O [A769662] (first compound 0.0001 µM, partner dose 2 µM) | 667 | 707 | 94.8 | 115 | 392 | 689 | 692 | 206 | 386 | 598
12 | CCN(CC)CCNC(=O)c1c(C)[nH]c(/C=C2\C(=O)Nc3ccc(F)cc32)c1C [sunitinib] + CCc1ccc(CCOc2ccc(CC3SC(=O)NC3=O)cc2)nc1 [pioglitazone] (first compound 0.4 µM, partner dose 2 µM) | 50.3 | 60.3 | 83.3 | 89 | 134 | 57.7 | 107 | 74.2 | 85.5 | 132
13 | CS(=O)(=O)c1ccc(C(=O)Nc2ccc(Cl)c(-c3ccccn3)c2)c(Cl)c1 [vismodegib] + O=C(O)C(=O)Nc1sc2c(c1C(=O)O)CCNC2 [TCS401] (first compound 1 µM, partner dose 1.66667 µM) | 119 | 45.7 | 37.5 | 79.2 | 53.9 | 175 | 155 | 77.2 | 115 | 232
14 | CN(c1ncccc1CNc1nc(Nc2ccc3c(c2)CC(=O)N3)ncc1C(F)(F)F)S(C)(=O)=O + C=CCn1c(=O)c2cnc(Nc3ccc(N4CCN(C)CC4)cc3)nc2n1-c1cccc(C(C)(C)O)n1 [MK1775] (first compound 0.08 µM, partner dose 0.02 µM) | 177 | 85.8 | 86 | 97.6 | 276 | 133 | 45.1 | 92.6 | 147 | 92.7
15 | C[C@@H](N)c1ccc(C(=O)Nc2ccnc3[nH]ccc23)cc1 + O=C(Nc1ccccc1)c1cc([N+](=O)[O-])ccc1Cl [GW9662] (first compound 0.4 µM, partner dose 2 µM) | 167 | 138 | 31.3 | 49.4 | 107 | 48.6 | 176 | 87 | 479 | 173
16 | CCCCCCCCc1ccc(CCC(N)(CO)CO)cc1 [fingolimod] + CC1(C)NC(=O)N(c2ccc([N+](=O)[O-])c(C(F)(F)F)c2)C1=O [nilutamide] (first compound 2 µM, partner dose 1 µM) | 141 | 220 | 111 | 78.3 | 58.5 | 60.3 | 822 | 70.7 | 150 | 172

A second format for some results above:
Row	SMILES	cleaved PARP positive nuclei fraction (MZ2-MEL) [%]	cleaved PARP positive nuclei fraction (MeWo) [%]	cleaved PARP positive nuclei fraction (RPMI7951) [%]	cleaved PARP positive nuclei fraction (RVH-421) [%]	cleaved PARP positive nuclei fraction (SkMel28) [%]	cleaved PARP positive nuclei fraction (SkMel2) [%]	cleaved PARP positive nuclei fraction (SkMel30) [%]	cleaved PARP positive nuclei fraction (SkMel5) [%]	cleaved PARP positive nuclei fraction (UACC257) [%]	cleaved PARP positive nuclei fraction (UACC62) [%]
1	C[C@@H](N)c1ccc(C(=O)Nc2ccnc3[nH]ccc23)cc1 + CN(C)S(=O)(=O)c1ccc2c(c1)/C(=C/c1cc3c([nH]1)CCCC3)C(=O)N2 [SU6656] (first compound 0.4 µM, partner dose 0.4 µM)	187	259	147	139	127	71.2	89.3	156	54.1	131
2	CN(c1ncccc1CNc1nc(Nc2ccc3c(c2)CC(=O)N3)ncc1C(F)(F)F)S(C)(=O)=O + Cn1cc(/C=C2\C(=O)Nc3cccnc32)c2ccccc21 [GW441756] (first compound 0.08 µM, partner dose 0.4 µM)	55.5	123	121	118	232	37.9	101	99.3	111	164
3	CCCCCCCCc1ccc(CCC(N)(CO)CO)cc1 [fingolimod] + COc1ccc2c(c1)CCC1C2CCC2(C)C(NCCCCCCN3C(=O)C=CC3=O)CCC12 [U73122] (first compound 2 µM, partner dose 0.4 µM)	148	59.3	97.7	141	118	87.3	340	43.4	75.9	144
4	CCCCCCCCc1ccc(CCC(N)(CO)CO)cc1 [fingolimod] + C[C@@H]1CCN(C(=O)CC#N)C[C@@H]1N(C)c1ncnc2[nH]ccc12 [CP690550] (first compound 2 µM, partner dose 1 µM)	83.2	70.2	123	56.5	224	116	68.9	140	103	107
